From PubChem BioAssay AID910 (National Center for Advancing Translational Sciences (NCATS), 2007)
Hit rate of the full screen: of about 2,400 compounds, about 15 (0.6%) were called active. Only results without a clear call are listed here; the source files them as inconclusive. The call rests on the fitted dose curve; in most records, active means well fitted activation curve with a large enough effect; inconclusive means small, poorly fitted or top-dose-only effect; inactive means flat fitted curve, though single readings scatter.

Test: Confirmation and Secondary Assay for Modulators of Hemoglobin Beta Chain Splicing at IVS2 654 locus;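 further: HeLa cells stably carrying EGFP split by mutant beta-globin IVS2-654 intron; per-well total GFP intensity by laser scanning cytometry after 2-day treatment; potency of activators that raise GFP signal by restoring correct splicing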
Settings: HeLa EGFP-654 splicing reporter, GFP fluorescence, 48 h
Source text: NIH Chemical Genomics Center [NCGC] NIH Molecular Libraries Screening Centers Network [MLSCN] MLSCN Grant: 1 X01 MH080684-01 PI Name: Dr. Ryszard Kole NCGC Assay Overview: Modulation of Alternative Splicing as Therapy Abnormal splicing is associated with a number of diseases, including cancer and genetic diseases such as cystic fibrosis, muscular dystrophy and beta-thalassemia. Alteration of disease associated splicing patterns provides a promising target for treatment. […] Mutations in the second intron of the b-globin gene at positions 654 or 705 are clinically relevant and cause mis-splicing which results in an out of frame gene product. […] EGFP-654 HeLa Cells as screen system. HeLa cell lines were stably transfected with a construct in which the EGFP (enhanced green fluorescent protein) cDNA was interrupted by the second intron of the beta-globin gene (IVS2-654). The ISV2 intron contains mutations which cause mis-splicing of EGFP and premature termination of EGFP which results in a nonfluorescent protein product. […]
NCGC Assay Protocol Summary: Confirmatory Screening. […] Plates were read in the Acumen Explorer (TTP Labtech) using 488 nm laser excitation and 500-520 nm emission PMT filter in a 1 x 8 uM capture mode. Fluorescnet objects ranging in size from 5 to 250 uM were measured and the total peak GFP intensity for each well was used for data analysis. […]
Potency means the concentration at half of the fitted maximal effect.

SMILES	Potency
CN(CCCl)CCCl	inconclusive: 20 µM
